Measurements reported in PubChem BioAssay AID1259405 (NCATS, 2018).

Test: 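Silenced genes that increase secreted GFP made by CHO cells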 (primary screen)
System: Chinese hamster CHO-K1 ovary cells with stable secreted eGFP expression
Reagent: single siRNA against mouse genes, 0.8 pmol siRNA per well (2 µl of 400 nM stock)
Timing: 3 days
Measurement: 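Percent of the per-plate non-targeting control median for intracellular GFP per well by laser scanning cytometry and for cell viability by ATP luminescence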
Reading the numbers: GFP, % of control: higher = more GFP per well, higher productivity; viability (ATP), % of control: higher = more viable cells (more ATP)
Active means: 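Called active when intracellular GFP, relative to negative control, is at or above 120%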
Here is one part, drawn at random, of about 50,000 reagents tested. Of all reagents, about 4,000 (8%) were called active. 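Mouse siRNA library applied to hamster cells; one well for each siRNA.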 The numbers tell different reagents against one gene apart.

no.	target	siRNA no.	GFP, % of control	viability (ATP), % of control	outcome
1	Nat8f3 (GeneID 93674)	1	108	87.5	inactive
2	Nat8f3 (GeneID 93674)	2	62	83.6	inactive
3	Nat8f3 (GeneID 93674)	3	40.9	36.8	inactive
4	Ddah2 (GeneID 51793)	1	96.9	53.1	inactive
5	Ddah2 (GeneID 51793)	2	76.6	80.5	inactive
6	Ddah2 (GeneID 51793)	3	81.5	45.2	inactive
7	Pax9 (GeneID 18511)	1	126	108	active
8	Pax9 (GeneID 18511)	2	66.1	88.9	inactive
9	Tas2r104 (GeneID 387340)	1	68.9	74.7	inactive
10	Tas2r104 (GeneID 387340)	2	111	88.4	inactive
11	Tas2r104 (GeneID 387340)	3	63.2	89.5	inactive
12	Ly6d (GeneID 17068)	1	63.6	48.1	inactive
13	Ly6d (GeneID 17068)	2	72.2	61.6	inactive
14	Ly6d (GeneID 17068)	3	105	56.2	inactive
15	Xrcc2 (GeneID 57434)	1	117	97.3	inactive
16	Xrcc2 (GeneID 57434)	2	67.2	79	inactive
17	Cnot6 (GeneID 104625)	1	130	72.7	active
18	Cnot6 (GeneID 104625)	2	66.3	63.7	inactive
19	Cnot6 (GeneID 104625)	3	81.3	120	inactive
20	Stard3nl (GeneID 76205)	1	47.7	66.2	inactive
21	Stard3nl (GeneID 76205)	2	81.5	88.7	inactive
22	Stard3nl (GeneID 76205)	3	55.4	55.6	inactive
23	Or5ar1 (GeneID 259017)	1	82.2	81.8	inactive
24	Or5ar1 (GeneID 259017)	2	66.9	82.4	inactive
25	Or5ar1 (GeneID 259017)	3	64.6	75.9	inactive
26	Atp6v1c2 (GeneID 68775)	1	98.8	84.1	inactive
27	Atp6v1c2 (GeneID 68775)	2	54.9	84	inactive
28	Atp6v1c2 (GeneID 68775)	3	62.3	61.1	inactive
29	Vmn1r201 (GeneID 171255)	1	60.6	48	inactive
30	Vmn1r201 (GeneID 171255)	2	70.3	93.5	inactive
31	Vmn1r201 (GeneID 171255)	3	83.5	98.8	inactive
32	Dhrs1 (GeneID 52585)	1	100	92.4	inactive
33	Dhrs1 (GeneID 52585)	2	64.8	56.5	inactive
34	Dhrs1 (GeneID 52585)	3	71.6	84.4	inactive

Entries listed so far whose target name begins with V or v (3):
target	siRNA no.	GFP, % of control	viability (ATP), % of control	outcome
Vmn1r201 (GeneID 171255)	1	60.6	48	inactive
Vmn1r201 (GeneID 171255)	2	70.3	93.5	inactive
Vmn1r201 (GeneID 171255)	3	83.5	98.8	inactive
